# This is one part of the list.
# Protein sequences, listed by entry. Tags and fused reporters are not part of them.
# UniProt Q0JBA9, entry or part of it: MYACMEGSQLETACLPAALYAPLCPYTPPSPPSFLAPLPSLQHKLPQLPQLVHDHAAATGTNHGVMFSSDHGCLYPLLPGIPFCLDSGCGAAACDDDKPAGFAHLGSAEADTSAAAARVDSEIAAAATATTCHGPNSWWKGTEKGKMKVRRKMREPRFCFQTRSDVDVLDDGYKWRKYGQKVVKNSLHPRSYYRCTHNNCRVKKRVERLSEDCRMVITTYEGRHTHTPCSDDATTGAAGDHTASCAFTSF
# Molecular target: OsWRKY34 (Oryza sativa, UniProt Q0JBA9 1-250)
# Assay: protein-binding microarray (RPBM); PBS, 2% BSA, 51.3 ng/ul salmon testes DNA, 50 uM zinc acetate, 200 nM TF, 25 C, 1 h; high values mean tight binding
# Details: protein: recombinant; tags: N-terminal polyhistidine and DsRed monomer fusion (pET32a); label: CyDye5-dUTP incorporated in the synthesized complementary strand; 3' TTTTT single-stranded linker to array surface; dsDNA, one strand shown
# How it was run: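 An Axon 4000B scanner gave the binding signal as per-feature fluorescence intensity in arbitrary units. This followed washing of a custom Agilent array that had been incubated for 1 h at 25 °C with 200 nM protein in PBS, 2% BSA, salmon testes DNA and 50 µM zinc acetate. The proteins were transcription factors fused at the N-terminus to polyhistidine and DsRed, expressed in E. coli BL21-CodonPlus and purified on Ni–NTA.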
row,Sequence,binding signal
1,GCAGGGCGATGGAGGTGGTGGTGGGCTTGGCCGCGGCGGCCGGAGTCACCTAGTGCAG,10400 fluorescence intensity (a.u.)
2,GATCCACCATGCCACCACCTGCTATTGCATTTAGCTTCTTCGGAGTCACCTAGTGCAG,10400 fluorescence intensity (a.u.)
3,CGATATGTGTTTATAGCTGGCTTACAGTCCGCTATTGTACCGGAGTCACCTAGTGCAG,8260 fluorescence intensity (a.u.)
4,CTCTCTCTCGCTCTTCAAATCCAGCTGCTGCCGTACGAACCGGAGTCACCTAGTGCAG,9680 fluorescence intensity (a.u.)
5,CTCGACGCTGCTCCTCTCCCACTCCTTCGCGTTCACCTTCCGGAGTCACCTAGTGCAG,11600 fluorescence intensity (a.u.)
6,CCTCGTCCGCCTTGGTCTTCTTCCAGCCGAGGAGCAACCGCGGAGTCACCTAGTGCAG,8510 fluorescence intensity (a.u.)
7,AATCCGGTCAGTCTGCGAGTGAGCTCACACCTCGATCCTCCGGAGTCACCTAGTGCAG,8160 fluorescence intensity (a.u.)
8,AGCTACATACGTACCTACGTTACGTTAATTTCTTGCTTGCCGGAGTCACCTAGTGCAG,9350 fluorescence intensity (a.u.)
9,AGTGTTTTGTTTTCTGAAGTTCAGATTACTCTACTATTGTCGGAGTCACCTAGTGCAG,8230 fluorescence intensity (a.u.)
10,ACCAACCCCTGCATTGACCTCACCTCACCTCACTCATCCCCGGAGTCACCTAGTGCAG,8880 fluorescence intensity (a.u.)
11,TCTTATTGACTATTTTCCAAAAGGTTATGTTTTCTTGCTACGGAGTCACCTAGTGCAG,8890 fluorescence intensity (a.u.)
12,ATATGCAAAATTCGCATGCCCGCTCATCGGCCTTTGTCACCGGAGTCACCTAGTGCAG,8100 fluorescence intensity (a.u.)
13,AACCACGCGCCCTACCCCGCAGCCTCCTTGTGCACGCCCGCGGAGTCACCTAGTGCAG,9070 fluorescence intensity (a.u.)
14,CTCTACGTCACCTTCGCGCTCGTCATCCTGCTCCTCCTCACGGAGTCACCTAGTGCAG,11700 fluorescence intensity (a.u.)
15,CCTCGTACACCTCATCTGTCGACATCTTAGTTATTCACCACGGAGTCACCTAGTGCAG,14000 fluorescence intensity (a.u.)
16,GCATTGCTGCTGCTGAAGCTGAGCTCTCTCCGTTTCAACTCGGAGTCACCTAGTGCAG,10900 fluorescence intensity (a.u.)
17,GCCGCCTGAACTTTTTCTTTTTTGCGAGGATGTTATTTTTCGGAGTCACCTAGTGCAG,9000 fluorescence intensity (a.u.)
18,GCAGCAGCACCACCACCACCGCTTCGTCCGCCCCGTGCCCCGGAGTCACCTAGTGCAG,9610 fluorescence intensity (a.u.)
19,ACACCATTAATACCCGGTCTCACCTCTCATACGCACACAACGGAGTCACCTAGTGCAG,8740 fluorescence intensity (a.u.)
20,TTCTACTCTATGCATGAACTTCACCTTTATCGATCTAAAACGGAGTCACCTAGTGCAG,11800 fluorescence intensity (a.u.)
21,ATATGCTCCGTCCTGCTTTGCCTTGTGTTAATGTGTGTTGCGGAGTCACCTAGTGCAG,10100 fluorescence intensity (a.u.)

# A run of entries taken from the entries so far:
row,Sequence,binding signal
9,AGTGTTTTGTTTTCTGAAGTTCAGATTACTCTACTATTGTCGGAGTCACCTAGTGCAG,8230 fluorescence intensity (a.u.)
10,ACCAACCCCTGCATTGACCTCACCTCACCTCACTCATCCCCGGAGTCACCTAGTGCAG,8880 fluorescence intensity (a.u.)
11,TCTTATTGACTATTTTCCAAAAGGTTATGTTTTCTTGCTACGGAGTCACCTAGTGCAG,8890 fluorescence intensity (a.u.)

# (list continues)

row,Sequence,binding signal
1,GTTGGGTGGTGGTGGCTACTGATGATTACACTATGGCAAACGGAGTCACCTAGTGCAG,10800 fluorescence intensity (a.u.)
2,GATTTGCGTGGACACTTTTTAGTATTCTTTGGATATAGTACGGAGTCACCTAGTGCAG,9150 fluorescence intensity (a.u.)
3,CGAGAGAGAGAGGGGAGGGTTTTGGGTTGTGCTTAGGTTTCGGAGTCACCTAGTGCAG,13100 fluorescence intensity (a.u.)
4,CTCGCTGCATTCCTCCCGCCTTGCCGCCACCGCCAAGCCACGGAGTCACCTAGTGCAG,10200 fluorescence intensity (a.u.)
5,ACAATCTCGAATATATCCTAGTACCAACGATCCCCATACTCGGAGTCACCTAGTGCAG,8440 fluorescence intensity (a.u.)
6,ATTTGATTGTCTTATGCTTGTTCTTTGATGATAAGCCATACGGAGTCACCTAGTGCAG,10900 fluorescence intensity (a.u.)
7,CACCACCGTCCCCGACTTCTTCCACCACCAGCCCGACCCCCGGAGTCACCTAGTGCAG,8090 fluorescence intensity (a.u.)
8,TATGACTTGGCCACTTGTCCCGTTGGGCCCTCACCGAGTGCGGAGTCACCTAGTGCAG,9170 fluorescence intensity (a.u.)
9,AAATGAATTTATTATGCATACGACCCAACCGTTTGACTCACGGAGTCACCTAGTGCAG,8280 fluorescence intensity (a.u.)
10,CCACCATTGCTCTGGTCTCTGGTCCCATCGTCCACTACAGCGGAGTCACCTAGTGCAG,11000 fluorescence intensity (a.u.)
11,GGTTTTAGCAACCGTTTCCTTATTTGACTTATGGGGCTAGCGGAGTCACCTAGTGCAG,8750 fluorescence intensity (a.u.)
12,ACGTGGCGATGTTATTTTCTATGTTCCTTAACAACTTTTACGGAGTCACCTAGTGCAG,9000 fluorescence intensity (a.u.)
13,TTGTTCTGTTTTGAGGTCATGTTTGGCTGTTCTGTGACTGCGGAGTCACCTAGTGCAG,8610 fluorescence intensity (a.u.)
14,GCCGCATTTCTCCTTTCCTCCTCTCACTCGCACGGCCCAACGGAGTCACCTAGTGCAG,8530 fluorescence intensity (a.u.)
15,TGCTGTTTTGTATTGTTGCTATTTTTTCTTAAGATTACCACGGAGTCACCTAGTGCAG,10000 fluorescence intensity (a.u.)
16,ATTCAGGTTTTCCGTCATACCTCCATCTCCTCACGATTCACGGAGTCACCTAGTGCAG,9030 fluorescence intensity (a.u.)
17,CAGTCTTGAACTAATTATGGTCTTGTTCGGTTAATCCCTCCGGAGTCACCTAGTGCAG,8570 fluorescence intensity (a.u.)
18,GGTCATACGTGTCATATTGCCCCTCAGTTATGCATTCATACGGAGTCACCTAGTGCAG,8320 fluorescence intensity (a.u.)
19,CTCCTACAGTCGTACTGCCTCGTCCCGCACTCCGTCAACACGGAGTCACCTAGTGCAG,11700 fluorescence intensity (a.u.)
20,ATCTCCTACAACGTTCTCGATGTGCTATCGGGGCCCTTTTCGGAGTCACCTAGTGCAG,9800 fluorescence intensity (a.u.)
21,TTGACCACACACACTCCATGTCTAGTACAGTACTCATCTACGGAGTCACCTAGTGCAG,10600 fluorescence intensity (a.u.)
